Among the data in PMC10499603, “Polθ is phosphorylated by PLK1 to repair double-strand breaks in mitosis” (Nature, 2023) are binding values, retold here.

The chains behind the UniProt entries cited, without tags or fusion partners.
UniProt O75417: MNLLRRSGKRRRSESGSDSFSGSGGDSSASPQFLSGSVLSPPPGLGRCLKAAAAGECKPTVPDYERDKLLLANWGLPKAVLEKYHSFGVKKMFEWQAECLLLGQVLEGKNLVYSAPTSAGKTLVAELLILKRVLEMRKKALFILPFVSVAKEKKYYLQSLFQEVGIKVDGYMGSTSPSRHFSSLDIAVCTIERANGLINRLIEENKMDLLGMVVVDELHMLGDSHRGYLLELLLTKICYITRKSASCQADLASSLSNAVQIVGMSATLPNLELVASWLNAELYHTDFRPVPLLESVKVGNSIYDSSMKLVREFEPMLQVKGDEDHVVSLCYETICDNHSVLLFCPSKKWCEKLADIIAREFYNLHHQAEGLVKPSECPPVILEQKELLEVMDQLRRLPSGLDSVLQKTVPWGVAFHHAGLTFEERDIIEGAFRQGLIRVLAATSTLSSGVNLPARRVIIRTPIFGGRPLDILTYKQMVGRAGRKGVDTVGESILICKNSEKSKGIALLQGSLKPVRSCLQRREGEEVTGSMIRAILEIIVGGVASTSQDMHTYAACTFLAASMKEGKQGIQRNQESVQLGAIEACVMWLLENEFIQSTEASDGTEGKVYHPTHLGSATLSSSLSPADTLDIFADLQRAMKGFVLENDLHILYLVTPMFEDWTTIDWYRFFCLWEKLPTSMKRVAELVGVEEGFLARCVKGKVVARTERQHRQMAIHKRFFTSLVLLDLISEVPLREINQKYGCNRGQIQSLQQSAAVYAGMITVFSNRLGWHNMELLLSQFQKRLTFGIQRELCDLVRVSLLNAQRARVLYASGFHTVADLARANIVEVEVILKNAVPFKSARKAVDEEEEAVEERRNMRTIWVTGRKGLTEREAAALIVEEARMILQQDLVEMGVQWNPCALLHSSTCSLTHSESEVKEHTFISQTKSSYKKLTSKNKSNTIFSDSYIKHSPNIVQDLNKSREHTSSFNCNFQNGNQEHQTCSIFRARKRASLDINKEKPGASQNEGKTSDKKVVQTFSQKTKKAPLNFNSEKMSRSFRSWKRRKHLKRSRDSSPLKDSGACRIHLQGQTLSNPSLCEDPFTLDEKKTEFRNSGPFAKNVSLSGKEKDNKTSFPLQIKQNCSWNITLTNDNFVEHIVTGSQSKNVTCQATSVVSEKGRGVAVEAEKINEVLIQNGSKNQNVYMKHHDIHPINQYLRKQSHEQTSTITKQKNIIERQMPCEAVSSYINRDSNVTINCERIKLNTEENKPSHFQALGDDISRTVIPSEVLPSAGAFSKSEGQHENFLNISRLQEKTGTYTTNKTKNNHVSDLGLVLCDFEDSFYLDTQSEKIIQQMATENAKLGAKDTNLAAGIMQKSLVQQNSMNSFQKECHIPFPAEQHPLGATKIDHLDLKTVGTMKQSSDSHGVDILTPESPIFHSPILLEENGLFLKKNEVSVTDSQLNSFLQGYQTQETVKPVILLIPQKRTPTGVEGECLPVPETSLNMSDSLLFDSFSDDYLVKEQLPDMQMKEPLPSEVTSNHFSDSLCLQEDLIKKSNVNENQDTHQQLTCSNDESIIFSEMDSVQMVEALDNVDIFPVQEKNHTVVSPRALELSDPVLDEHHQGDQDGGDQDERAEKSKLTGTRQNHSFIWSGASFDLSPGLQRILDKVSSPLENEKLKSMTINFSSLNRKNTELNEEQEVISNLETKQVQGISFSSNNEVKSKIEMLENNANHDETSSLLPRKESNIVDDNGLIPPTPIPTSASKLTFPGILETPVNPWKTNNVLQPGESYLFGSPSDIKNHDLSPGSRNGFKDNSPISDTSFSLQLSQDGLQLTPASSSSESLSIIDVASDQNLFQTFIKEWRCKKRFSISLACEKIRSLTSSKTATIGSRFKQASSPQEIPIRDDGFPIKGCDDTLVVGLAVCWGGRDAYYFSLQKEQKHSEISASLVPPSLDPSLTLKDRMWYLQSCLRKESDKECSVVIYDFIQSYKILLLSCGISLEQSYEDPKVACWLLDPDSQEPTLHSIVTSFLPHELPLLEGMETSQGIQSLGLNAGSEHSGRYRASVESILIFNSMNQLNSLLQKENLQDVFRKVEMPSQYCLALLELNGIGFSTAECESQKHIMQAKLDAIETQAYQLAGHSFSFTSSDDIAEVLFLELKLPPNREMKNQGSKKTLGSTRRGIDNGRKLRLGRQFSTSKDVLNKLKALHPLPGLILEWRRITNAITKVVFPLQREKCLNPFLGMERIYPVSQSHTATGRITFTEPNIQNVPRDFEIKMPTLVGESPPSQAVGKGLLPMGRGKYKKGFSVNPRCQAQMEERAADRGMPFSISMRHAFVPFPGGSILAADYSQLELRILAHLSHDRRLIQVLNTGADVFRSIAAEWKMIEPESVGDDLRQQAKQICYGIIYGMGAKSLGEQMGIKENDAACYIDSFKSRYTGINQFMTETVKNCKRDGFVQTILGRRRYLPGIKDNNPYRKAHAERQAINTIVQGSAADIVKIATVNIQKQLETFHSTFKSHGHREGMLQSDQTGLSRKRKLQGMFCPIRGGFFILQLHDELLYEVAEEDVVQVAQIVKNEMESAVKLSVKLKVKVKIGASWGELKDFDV
UniProt P51587: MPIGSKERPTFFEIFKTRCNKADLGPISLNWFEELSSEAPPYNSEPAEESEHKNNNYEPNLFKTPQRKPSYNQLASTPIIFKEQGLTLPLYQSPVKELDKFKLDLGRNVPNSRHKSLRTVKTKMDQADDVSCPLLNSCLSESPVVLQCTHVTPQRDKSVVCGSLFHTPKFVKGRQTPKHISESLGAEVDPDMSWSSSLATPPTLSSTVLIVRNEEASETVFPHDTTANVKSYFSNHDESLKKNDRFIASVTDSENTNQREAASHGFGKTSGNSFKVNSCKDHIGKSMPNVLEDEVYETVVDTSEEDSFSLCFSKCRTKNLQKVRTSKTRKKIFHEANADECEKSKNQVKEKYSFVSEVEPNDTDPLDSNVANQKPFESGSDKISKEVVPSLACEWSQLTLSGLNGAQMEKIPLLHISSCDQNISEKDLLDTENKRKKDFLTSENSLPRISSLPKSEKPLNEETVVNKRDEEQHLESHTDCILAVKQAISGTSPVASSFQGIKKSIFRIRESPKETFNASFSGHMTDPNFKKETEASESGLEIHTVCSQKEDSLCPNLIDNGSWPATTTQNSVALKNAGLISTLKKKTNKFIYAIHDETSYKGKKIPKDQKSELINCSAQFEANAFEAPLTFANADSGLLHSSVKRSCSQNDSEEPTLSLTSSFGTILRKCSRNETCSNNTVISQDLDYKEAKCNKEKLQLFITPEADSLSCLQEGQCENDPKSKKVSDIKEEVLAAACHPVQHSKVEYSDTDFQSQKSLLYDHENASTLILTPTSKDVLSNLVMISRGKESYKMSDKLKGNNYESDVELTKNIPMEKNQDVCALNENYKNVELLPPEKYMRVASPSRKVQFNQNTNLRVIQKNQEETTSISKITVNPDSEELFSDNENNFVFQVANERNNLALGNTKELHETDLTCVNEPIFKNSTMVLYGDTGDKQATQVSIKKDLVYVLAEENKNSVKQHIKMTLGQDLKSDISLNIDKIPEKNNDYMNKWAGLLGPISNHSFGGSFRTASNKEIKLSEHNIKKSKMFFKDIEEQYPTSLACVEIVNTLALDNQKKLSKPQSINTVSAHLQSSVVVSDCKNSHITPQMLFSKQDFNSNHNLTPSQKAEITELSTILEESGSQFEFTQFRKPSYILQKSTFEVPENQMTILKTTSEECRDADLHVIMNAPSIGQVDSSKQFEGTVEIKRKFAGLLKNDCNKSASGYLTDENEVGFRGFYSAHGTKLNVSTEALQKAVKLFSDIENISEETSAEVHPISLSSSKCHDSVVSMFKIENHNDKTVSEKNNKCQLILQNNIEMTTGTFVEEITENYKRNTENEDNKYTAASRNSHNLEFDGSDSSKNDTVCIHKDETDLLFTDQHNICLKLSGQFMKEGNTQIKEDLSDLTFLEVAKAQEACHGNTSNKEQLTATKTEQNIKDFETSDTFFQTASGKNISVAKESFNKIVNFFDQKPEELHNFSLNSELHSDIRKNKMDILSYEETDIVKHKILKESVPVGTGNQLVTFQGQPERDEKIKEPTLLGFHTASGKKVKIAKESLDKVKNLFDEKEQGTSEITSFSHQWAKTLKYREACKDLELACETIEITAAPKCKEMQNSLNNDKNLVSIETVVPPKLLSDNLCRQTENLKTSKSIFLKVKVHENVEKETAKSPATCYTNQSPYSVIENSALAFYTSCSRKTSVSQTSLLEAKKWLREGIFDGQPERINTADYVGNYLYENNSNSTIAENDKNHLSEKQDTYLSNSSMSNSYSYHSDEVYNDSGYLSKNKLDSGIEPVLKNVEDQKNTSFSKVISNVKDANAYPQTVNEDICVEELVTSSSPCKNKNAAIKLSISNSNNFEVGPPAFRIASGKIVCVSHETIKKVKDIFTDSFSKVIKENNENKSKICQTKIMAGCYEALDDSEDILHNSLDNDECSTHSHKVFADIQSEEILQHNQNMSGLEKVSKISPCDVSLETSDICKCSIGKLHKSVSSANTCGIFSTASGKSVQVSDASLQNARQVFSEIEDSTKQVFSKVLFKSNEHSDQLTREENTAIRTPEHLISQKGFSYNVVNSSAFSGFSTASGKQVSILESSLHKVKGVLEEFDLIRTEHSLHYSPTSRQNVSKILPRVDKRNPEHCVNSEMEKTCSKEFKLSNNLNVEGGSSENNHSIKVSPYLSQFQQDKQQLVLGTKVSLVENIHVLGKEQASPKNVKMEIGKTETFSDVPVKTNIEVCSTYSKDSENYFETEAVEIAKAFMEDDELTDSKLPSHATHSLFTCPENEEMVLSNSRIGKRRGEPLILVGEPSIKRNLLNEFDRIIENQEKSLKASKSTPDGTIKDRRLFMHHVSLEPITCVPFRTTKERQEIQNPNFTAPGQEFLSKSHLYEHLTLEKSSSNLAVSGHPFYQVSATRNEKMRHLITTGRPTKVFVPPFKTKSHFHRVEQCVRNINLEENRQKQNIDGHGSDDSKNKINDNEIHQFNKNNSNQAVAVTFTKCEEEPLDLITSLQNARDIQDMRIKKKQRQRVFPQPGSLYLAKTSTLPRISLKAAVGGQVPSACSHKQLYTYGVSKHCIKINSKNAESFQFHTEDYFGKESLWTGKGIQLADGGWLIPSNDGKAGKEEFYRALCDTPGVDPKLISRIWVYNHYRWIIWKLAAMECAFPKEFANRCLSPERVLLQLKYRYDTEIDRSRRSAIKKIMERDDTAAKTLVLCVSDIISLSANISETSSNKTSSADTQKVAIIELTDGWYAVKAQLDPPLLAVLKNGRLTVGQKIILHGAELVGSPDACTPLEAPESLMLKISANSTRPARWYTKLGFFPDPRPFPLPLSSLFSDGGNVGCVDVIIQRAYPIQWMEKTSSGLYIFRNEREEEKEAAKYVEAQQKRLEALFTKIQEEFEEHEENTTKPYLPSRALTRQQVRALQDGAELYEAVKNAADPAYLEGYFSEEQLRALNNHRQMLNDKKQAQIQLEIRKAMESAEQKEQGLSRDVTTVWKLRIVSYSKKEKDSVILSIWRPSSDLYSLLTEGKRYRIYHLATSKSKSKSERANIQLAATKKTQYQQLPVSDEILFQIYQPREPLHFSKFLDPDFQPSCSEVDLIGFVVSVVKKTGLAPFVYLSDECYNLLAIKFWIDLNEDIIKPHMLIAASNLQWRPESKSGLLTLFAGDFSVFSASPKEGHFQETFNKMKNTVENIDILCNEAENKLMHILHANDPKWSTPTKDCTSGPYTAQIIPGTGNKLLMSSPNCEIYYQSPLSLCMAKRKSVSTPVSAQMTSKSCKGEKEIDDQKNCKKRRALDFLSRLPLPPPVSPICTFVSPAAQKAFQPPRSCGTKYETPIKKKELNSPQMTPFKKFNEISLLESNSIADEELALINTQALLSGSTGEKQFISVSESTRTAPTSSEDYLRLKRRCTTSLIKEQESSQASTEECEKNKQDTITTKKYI

The target in this test is endogenous NeonGreen-tagged DNA polymerase theta (Polθ) (human (endogenous in HEK-293T)) (UniProt O75417). Description: affinity purification with mass spectrometry; mNeonGreen-Trap magnetic agarose beads, 5 mg nuclear extract of HEK-293T NeonGreen-POLQ knock-in cells, 2 h at 4 °C; washes with 150 mM and 300 mM NaCl; label-free LC-MS/MS; native HEK extract as control.

Results are given in words; binding and its absence hold for the method and conditions named. Binding seen in cells or lysates may run through a third protein. A yes stands for co-enrichment or nearness to the bait. Other partners may have been found.

For the substance BRCA2 (from UniProt P51587 1-3418), the binding entry was “binds”.
